± gives the uncertainty stated by the source. Many entries were measured with a wide error.
Test: self-splicing fitness, log relative to wild type (ln ratio); higher = more splicing; Tetrahymena group I intron in knt gene, E. coli kanamycin selection, DiMSum; sequences stand for … in CUCUCU…GGAGGGAAAAGUUAUCAGGCAUGCACCUGGUAGCUAGUCUUUAAACCAAUAGAUUGCAUCGGUUUAAAAGGCAAGACCGUCAAAUUGCGGGAAAGGGGUCAACAGCCGUUCAGUACCAAGUCUCAGGGGAAACUUUGAGAUGGCCUUGCAAAGGGUAUGGUAAUAAGCUGACGGACAUGGUCCUAACCACGCAGCCAAGUCCUAAGUCAACAGAUCUUCUGUUGAUAUGGAUGCAGUUCACAGACUAAAUGUCGGUCGGGGAAGAUGUAUUCUUCUCAUAAGAUAUAGUCGGACCUCUCCUUAAUGGGAGCUAGCGGAUGAAGUGAUGCAACACUGGAGCCGCUGGGAACUAAUUUGUAUGCGAAAGUAUAUUGAUUAGUUUUGGAGUACUCGUGGUCG
Procedure, shortened: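 Colonies from six replicate transformations of E. coli BL21(DE3) were pooled and amplicon-sequenced on an Illumina HiSeq 2500. The library placed an intron with all eight P1ex-region nucleotides randomised inside the knt kanamycin-resistance gene on pET-22b(+), and cells grew overnight at 37°C or 30°C on LB agar with or without 25 μg/mL kanamycin (plus 100 μg/mL carbenicillin, 50 μM IPTG, 0.2% rhamnose). Fitness is the DiMSum error-weighted combination of wild-type-normalised replicate fold changes, kanamycin versus none.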

Sequence | self-splicing fitness (ln) (37 °C) | self-splicing fitness (ln) (30 °C)
GUAUAGCAAUAUUACGCUUC | -0.333 ± 0.93 | –
UGCAAGCAAUAUUACGAUGC | -2.83 ± 0.54 | –
ACUGAGCAAUAUUACGGGAG | -2.74 ± 0.2 | -3.29 ± 0.2
AAGUAGCAAUAUUACGACGG | -1.66 ± 0.34 | -1.74 ± 0.29
GUGCAGCAAUAUUACGCAUG | -0.586 ± 0.16 | -3.11 ± 0.29
CCUAAGCAAUAUUACGCUUC | -3.11 ± 0.61 | –
AGUGAGCAAUAUUACGACGU | -0.385 ± 0.066 | -0.966 ± 0.059
AGAGAGCAAUAUUACGAAUA | – | -3.12 ± 0.61
GUCUAGCAAUAUUACGAGAC | -2.34 ± 0.3 | -3.7 ± 0.24
GGGGAGCAAUAUUACGUCCU | -1.96 ± 0.56 | –
AGAGAGCAAUAUUACGGCGG | -1.87 ± 0.52 | –
UAGUAGCAAUAUUACGAUGU | – | -4.3 ± 0.72
UCAGAGCAAUAUUACGCCAU | – | -3.94 ± 0.51
UGAAAGCAAUAUUACGAAAC | – | -3.66 ± 0.73
GUUAAGCAAUAUUACGUCGC | -1.83 ± 0.28 | -1.61 ± 0.21
ACUUAGCAAUAUUACGCAUA | -1.42 ± 0.14 | -1.74 ± 0.12
UACGAGCAAUAUUACGUUCC | -2.3 ± 1.1 | –
CAAGAGCAAUAUUACGGUGA | -1.88 ± 0.21 | -3.01 ± 0.2
CUCAAGCAAUAUUACGAGCA | – | -3.51 ± 0.52
GUGUAGCAAUAUUACGUCUC | -0.769 ± 0.72 | -2.02 ± 1.2
GAAAAGCAAUAUUACGGAGG | -1.73 ± 0.18 | -2.71 ± 0.14
CGUUAGCAAUAUUACGCAUA | – | -4.08 ± 0.72
CUUUAGCAAUAUUACGUCGC | – | -1.8 ± 0.56
GUGGAGCAAUAUUACGUCCA | -2.64 ± 1.1 | -3.06 ± 0.83

Sequence | self-splicing fitness (ln) (37 °C) | self-splicing fitness (ln) (30 °C)
UCGAAGCAAUAUUACGUUAC | -2.95 ± 0.53 | -4.41 ± 0.73
CGCGAGCAAUAUUACGAGAC | -2.4 ± 0.57 | -0.224 ± 0.53
GCGGAGCAAUAUUACGCUCG | -3.17 ± 0.53 | –
UGAGAGCAAUAUUACGCGAC | -2.2 ± 1.1 | -0.167 ± 1.2
GUUGAGCAAUAUUACGCGGA | – | -2.46 ± 0.65
GCGGAGCAAUAUUACGCUGU | -2.18 ± 0.77 | -3.01 ± 0.84
GGUUAGCAAUAUUACGCCAC | – | 0.425 ± 0.57
ACAGAGCAAUAUUACGAACC | – | -2.66 ± 1.1
CCUCAGCAAUAUUACGCCCC | – | -3.13 ± 1
CCGAAGCAAUAUUACGCCCU | – | -4.8 ± 1
UGCGAGCAAUAUUACGCGCU | -3.53 ± 1 | –
GUGGAGCAAUAUUACGGCUC | -1.39 ± 0.87 | –
GACAAGCAAUAUUACGCCAC | – | -4.15 ± 0.51
CUUUAGCAAUAUUACGGCCC | -1 ± 0.92 | –
UAGCAGCAAUAUUACGAUAU | -2.98 ± 0.19 | -2.42 ± 0.15
UAAGAGCAAUAUUACGAGGC | – | -3.12 ± 0.58
UGAGAGCAAUAUUACGGGAU | – | -4.3 ± 0.59
GCAAAGCAAUAUUACGAGUG | -0.371 ± 0.092 | -2.57 ± 0.097
CCGAAGCAAUAUUACGCUAC | -3.23 ± 0.74 | -2.35 ± 0.79
GCGUAGCAAUAUUACGCUCA | – | -2.52 ± 0.64
UGAGAGCAAUAUUACGGCCU | – | -4.04 ± 1.1
UCGGAGCAAUAUUACGCUAC | -0.836 ± 0.74 | –
CAAGAGCAAUAUUACGCCUA | – | -3.75 ± 1
CAGAAGCAAUAUUACGGCGA | -1.5 ± 0.18 | -1.43 ± 0.15

Sequence | self-splicing fitness (ln) (37 °C) | self-splicing fitness (ln) (30 °C)
CGGGAGCAAUAUUACGCACC | -1.29 ± 1.2 | –
UGGUAGCAAUAUUACGUCUC | -2.49 ± 0.64 | -3.22 ± 0.54
CUUGAGCAAUAUUACGAUCA | – | -3.28 ± 0.75
UGCCAGCAAUAUUACGACUC | -1.34 ± 0.62 | -2.15 ± 0.51
CAGCAGCAAUAUUACGGACC | – | -3.25 ± 0.54
CAUAAGCAAUAUUACGUCAC | -3.16 ± 0.61 | –
CUAAAGCAAUAUUACGGCCA | -2.08 ± 0.4 | -3.21 ± 0.31
GCUGAGCAAUAUUACGUGGC | -1.52 ± 0.64 | -1.55 ± 0.71
UAGGAGCAAUAUUACGACGU | – | -1.71 ± 0.69
AUAAAGCAAUAUUACGAAGG | -1.41 ± 0.12 | -2.1 ± 0.081
CUUUAGCAAUAUUACGAGAA | – | -1.75 ± 0.63
UGUGAGCAAUAUUACGCUCA | -2.16 ± 0.55 | -3.7 ± 1.1
UCGAAGCAAUAUUACGACUA | -0.97 ± 0.13 | -1.05 ± 0.16
UCCUAGCAAUAUUACGGCCC | -1.13 ± 1.2 | –
UCAUAGCAAUAUUACGGAAG | – | -3.74 ± 0.59
UCCGAGCAAUAUUACGCCGU | -3.97 ± 0.52 | –
GUGGAGCAAUAUUACGAUAA | 0.459 ± 1.2 | –
AAAGAGCAAUAUUACGACCA | -2.77 ± 0.61 | –
UGAUAGCAAUAUUACGGUUC | – | -4.44 ± 0.51
CCAUAGCAAUAUUACGAACU | -1.43 ± 0.57 | –
GCAUAGCAAUAUUACGGCAG | -3.09 ± 0.52 | -2.5 ± 0.91
UCGGAGCAAUAUUACGAUUG | -2.55 ± 0.54 | -3.84 ± 0.59
GUGUAGCAAUAUUACGAGAA | -1.14 ± 0.63 | -1.35 ± 0.69
CGCGAGCAAUAUUACGUGGA | -3.01 ± 0.34 | -2.79 ± 0.16

Sequence | self-splicing fitness (ln) (37 °C) | self-splicing fitness (ln) (30 °C)
GAGAAGCAAUAUUACGGCUC | – | -1.74 ± 0.59
GAAUAGCAAUAUUACGAGGG | -3.25 ± 0.19 | -3.39 ± 0.18
CUGAAGCAAUAUUACGCUCC | -1.33 ± 0.87 | –
CCGCAGCAAUAUUACGGAUC | – | -4.17 ± 0.59
CCGGAGCAAUAUUACGGUGC | – | -3.54 ± 0.52
GGAGAGCAAUAUUACGCCGA | – | -1.52 ± 0.61
CUUUAGCAAUAUUACGAAAC | – | -4.5 ± 0.59
CGCGAGCAAUAUUACGGACC | – | -4.82 ± 1
GUCAAGCAAUAUUACGGCAG | – | -5.32 ± 0.58
AGUUAGCAAUAUUACGCGAU | -1.85 ± 0.81 | -0.77 ± 0.57
UGCGAGCAAUAUUACGGAUC | -2.55 ± 0.76 | -3.37 ± 0.75
UGUGAGCAAUAUUACGAGAA | – | -1.93 ± 0.7
ACGUAGCAAUAUUACGCGUA | -1.74 ± 0.16 | -2.22 ± 0.17
CUCGAGCAAUAUUACGGCCG | – | -2.73 ± 0.55
CUGAAGCAAUAUUACGCUAC | -3.64 ± 0.59 | –
AACGAGCAAUAUUACGAAUA | -1.63 ± 0.34 | -3.52 ± 0.52
UGAGAGCAAUAUUACGCCCA | -1.15 ± 0.5 | –
UUGUAGCAAUAUUACGGGGA | -0.346 ± 0.17 | -1.98 ± 0.26
GACGAGCAAUAUUACGAGAA | -2.77 ± 1.1 | -1.55 ± 0.76
CUCUAGCAAUAUUACGAGUA | – | -3.39 ± 0.65
GUCGAGCAAUAUUACGAGCC | -2 ± 0.56 | –
UUCGAGCAAUAUUACGUACG | -0.522 ± 0.77 | –
CGUAAGCAAUAUUACGCACC | – | -2.44 ± 0.6
CAUUAGCAAUAUUACGACCC | -1.29 ± 0.69 | -3.85 ± 0.74

Sequence | self-splicing fitness (ln) (37 °C) | self-splicing fitness (ln) (30 °C)
UGAUAGCAAUAUUACGUUAG | -1.57 ± 0.15 | -1.92 ± 0.1
GUGUAGCAAUAUUACGAUCA | -0.543 ± 0.14 | -0.818 ± 0.13
UUUAAGCAAUAUUACGAAGG | -2.81 ± 0.53 | -3.55 ± 0.52
ACGGAGCAAUAUUACGCGCC | 0.406 ± 1.2 | -1.55 ± 0.87
UCAGAGCAAUAUUACGAAAC | – | -3.95 ± 0.72
CUCGAGCAAUAUUACGAACG | -1.38 ± 0.63 | -4.16 ± 1
CCAUAGCAAUAUUACGCAAC | -3.2 ± 0.52 | –
GGAGAGCAAUAUUACGGAAA | -2.91 ± 0.59 | -2.33 ± 0.78
AAAGAGCAAUAUUACGUUAC | -1.84 ± 0.52 | –
AUCGAGCAAUAUUACGGGCU | -2.94 ± 0.26 | -4.05 ± 0.23
ACUCAGCAAUAUUACGGAGU | -2.7 ± 0.18 | -2.78 ± 0.11
CCGUAGCAAUAUUACGCCGG | -2.03 ± 0.57 | –
GGCUAGCAAUAUUACGAGUC | – | -3.39 ± 0.61
GGGAAGCAAUAUUACGUCCU | 0.254 ± 0.87 | -3.88 ± 1.1
UGGUAGCAAUAUUACGUCCC | 1.51 ± 0.75 | -0.754 ± 0.88
GUUGAGCAAUAUUACGCUUC | -1.33 ± 1.2 | –
CUAGAGCAAUAUUACGCCCU | -1.33 ± 0.82 | –
AUAGAGCAAUAUUACGGAUC | -2.14 ± 0.31 | -2.96 ± 0.3
UGUUAGCAAUAUUACGUAUC | – | -3.99 ± 0.72
CCUGAGCAAUAUUACGGGAC | -2.08 ± 0.27 | -4.19 ± 0.46
UUUUAGCAAUAUUACGUGCU | -0.459 ± 0.22 | -2.43 ± 0.47

Quoted at random: six entries already listed, in no set order.
Sequence | self-splicing fitness (ln) (37 °C) | self-splicing fitness (ln) (30 °C)
GUGUAGCAAUAUUACGAGAA | -1.14 ± 0.63 | -1.35 ± 0.69
CAGCAGCAAUAUUACGGACC | – | -3.25 ± 0.54
CUCUAGCAAUAUUACGAGUA | – | -3.39 ± 0.65
UCAUAGCAAUAUUACGGAAG | – | -3.74 ± 0.59
UCGGAGCAAUAUUACGAUUG | -2.55 ± 0.54 | -3.84 ± 0.59
UGUGAGCAAUAUUACGCUCA | -2.16 ± 0.55 | -3.7 ± 1.1

Reference: the supplement of paper PMC7877785
